The list shows a part of the results.
compound: c1cn2cc(-c3ccc4cn[nH]c4c3)nc(Nc3ccc(N4CCOCC4)cc3)c2n1 [entospletinib]; experiment: log2 fold change, soluble protein after heating vs DMSO (PISA); higher = thermal stabilisation; K562 lysate, 10 uM; active = over 0.2 and 3.5 SD of the protein, either way, in both replicates (recomputed)
How it was run: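 K562 pellets were dounce-homogenised in PBS pH 7.4 containing 1 mM MgCl2, and the crude extract, at 1 mg/mL protein, was exposed to 10 μM compound for 30 min. Aliquots were heated for 3 min across 48°C-58°C, pooled, brought to 0.5% NP-40 at 4°C and spun at 21,000xg for 90 min, with the supernatant taken as soluble protein. TMTpro 16plex LC-MS/MS with equalised channel sums quantified that protein. Values are log-two fold changes in thermal stability relative to solvent controls, taken from duplicates.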

By UniProt entry, the sequences of proteins in these tests, tags left out. Where a name states a change or a piece, a line headed by the entry shows the natural chain unless it says otherwise.
UniProt Q86WQ0: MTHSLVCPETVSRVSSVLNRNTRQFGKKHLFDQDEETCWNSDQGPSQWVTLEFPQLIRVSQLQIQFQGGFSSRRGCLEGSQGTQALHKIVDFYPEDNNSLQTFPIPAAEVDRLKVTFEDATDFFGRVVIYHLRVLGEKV
UniProt Q9Y639: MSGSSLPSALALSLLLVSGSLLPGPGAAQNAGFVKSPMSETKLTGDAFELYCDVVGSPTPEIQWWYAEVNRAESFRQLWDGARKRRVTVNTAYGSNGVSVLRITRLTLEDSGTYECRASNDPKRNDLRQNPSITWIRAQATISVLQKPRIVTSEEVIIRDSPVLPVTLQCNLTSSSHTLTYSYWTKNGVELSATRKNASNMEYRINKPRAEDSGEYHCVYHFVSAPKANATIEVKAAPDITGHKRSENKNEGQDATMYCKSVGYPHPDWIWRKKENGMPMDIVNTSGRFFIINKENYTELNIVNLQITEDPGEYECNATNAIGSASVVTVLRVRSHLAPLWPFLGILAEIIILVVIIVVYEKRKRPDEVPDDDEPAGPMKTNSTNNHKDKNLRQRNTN
UniProt P22392, whole entry, looked up: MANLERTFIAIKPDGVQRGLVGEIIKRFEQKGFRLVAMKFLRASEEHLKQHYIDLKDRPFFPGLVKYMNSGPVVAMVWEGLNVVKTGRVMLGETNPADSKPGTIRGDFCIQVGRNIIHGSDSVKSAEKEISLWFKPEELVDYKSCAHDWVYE
UniProt P49902: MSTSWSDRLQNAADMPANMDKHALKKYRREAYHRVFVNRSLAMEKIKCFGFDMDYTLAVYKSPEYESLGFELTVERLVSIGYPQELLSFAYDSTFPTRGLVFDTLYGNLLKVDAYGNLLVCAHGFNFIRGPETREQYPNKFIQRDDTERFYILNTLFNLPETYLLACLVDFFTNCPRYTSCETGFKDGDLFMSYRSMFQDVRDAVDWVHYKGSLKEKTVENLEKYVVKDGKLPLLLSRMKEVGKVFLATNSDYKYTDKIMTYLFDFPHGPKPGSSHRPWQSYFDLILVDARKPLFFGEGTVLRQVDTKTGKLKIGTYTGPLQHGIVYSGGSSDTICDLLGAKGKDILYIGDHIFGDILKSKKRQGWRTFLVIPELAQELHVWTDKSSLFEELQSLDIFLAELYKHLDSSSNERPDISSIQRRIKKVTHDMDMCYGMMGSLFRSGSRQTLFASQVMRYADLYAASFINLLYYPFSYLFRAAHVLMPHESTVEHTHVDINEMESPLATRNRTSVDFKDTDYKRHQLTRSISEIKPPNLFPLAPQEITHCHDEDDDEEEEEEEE
UniProt P46087: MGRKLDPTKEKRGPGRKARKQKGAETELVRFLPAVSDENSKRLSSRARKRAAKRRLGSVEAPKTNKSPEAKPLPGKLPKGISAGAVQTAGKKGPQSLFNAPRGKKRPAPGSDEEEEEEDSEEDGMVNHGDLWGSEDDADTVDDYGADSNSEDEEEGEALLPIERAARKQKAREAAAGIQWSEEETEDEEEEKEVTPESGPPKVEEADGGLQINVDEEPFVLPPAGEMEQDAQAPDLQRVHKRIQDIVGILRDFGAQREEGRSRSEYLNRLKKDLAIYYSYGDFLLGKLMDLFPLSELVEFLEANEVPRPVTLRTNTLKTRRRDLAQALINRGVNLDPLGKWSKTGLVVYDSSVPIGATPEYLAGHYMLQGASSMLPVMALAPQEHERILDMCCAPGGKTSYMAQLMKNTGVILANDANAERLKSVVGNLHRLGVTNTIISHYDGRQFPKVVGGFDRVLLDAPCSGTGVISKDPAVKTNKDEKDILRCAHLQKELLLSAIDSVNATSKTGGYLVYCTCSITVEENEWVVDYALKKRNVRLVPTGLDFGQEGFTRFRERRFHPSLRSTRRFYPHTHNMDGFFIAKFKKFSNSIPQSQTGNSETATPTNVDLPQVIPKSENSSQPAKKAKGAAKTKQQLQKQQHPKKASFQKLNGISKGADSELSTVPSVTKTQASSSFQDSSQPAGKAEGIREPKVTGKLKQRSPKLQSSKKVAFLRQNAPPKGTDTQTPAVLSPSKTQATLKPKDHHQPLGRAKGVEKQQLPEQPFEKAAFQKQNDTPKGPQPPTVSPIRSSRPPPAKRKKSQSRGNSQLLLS
UniProt Q9BSC4: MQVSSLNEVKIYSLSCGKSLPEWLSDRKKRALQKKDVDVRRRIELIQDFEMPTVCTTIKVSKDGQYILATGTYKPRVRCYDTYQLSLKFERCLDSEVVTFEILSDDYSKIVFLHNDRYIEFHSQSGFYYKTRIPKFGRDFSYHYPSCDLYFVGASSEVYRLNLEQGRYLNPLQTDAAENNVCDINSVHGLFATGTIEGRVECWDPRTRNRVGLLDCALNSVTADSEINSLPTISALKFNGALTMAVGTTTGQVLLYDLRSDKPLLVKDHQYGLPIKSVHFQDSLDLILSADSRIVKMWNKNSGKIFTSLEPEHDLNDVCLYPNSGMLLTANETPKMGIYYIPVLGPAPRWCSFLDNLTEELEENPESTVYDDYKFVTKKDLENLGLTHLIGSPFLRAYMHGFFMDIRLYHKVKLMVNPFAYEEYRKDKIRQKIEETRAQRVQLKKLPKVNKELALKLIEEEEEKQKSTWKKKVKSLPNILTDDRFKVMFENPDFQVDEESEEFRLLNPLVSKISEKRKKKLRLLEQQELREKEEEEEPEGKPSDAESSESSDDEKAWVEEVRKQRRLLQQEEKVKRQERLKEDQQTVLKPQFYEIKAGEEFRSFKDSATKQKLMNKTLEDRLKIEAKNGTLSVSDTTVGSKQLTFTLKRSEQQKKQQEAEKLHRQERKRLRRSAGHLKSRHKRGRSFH
UniProt Q15738: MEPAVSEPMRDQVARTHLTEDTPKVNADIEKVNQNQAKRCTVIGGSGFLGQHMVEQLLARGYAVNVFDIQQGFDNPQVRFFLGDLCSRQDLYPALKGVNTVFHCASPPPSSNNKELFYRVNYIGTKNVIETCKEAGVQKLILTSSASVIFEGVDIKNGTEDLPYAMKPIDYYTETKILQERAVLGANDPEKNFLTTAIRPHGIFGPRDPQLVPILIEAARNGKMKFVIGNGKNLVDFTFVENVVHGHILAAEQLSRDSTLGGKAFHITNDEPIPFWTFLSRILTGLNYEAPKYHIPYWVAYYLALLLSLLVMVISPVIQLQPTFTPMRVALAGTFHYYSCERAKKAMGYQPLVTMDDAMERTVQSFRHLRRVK

log2 fold change, inactive:
NR2C2AP isoform 2 (UniProt Q86WQ0) -0.066
NPTN (UniProt Q9Y639) 0.096
NME2 isoform 2 (UniProt P22392) 0.014
NT5C2 (UniProt P49902) 0.009
NRBF2 (UniProt Q96F24) -0.033
NOP2 isoform 4 (UniProt P46087) -0.006
NOL10 (UniProt Q9BSC4) 0.049
NSDHL (UniProt Q15738) -0.021
